Protein sequences, listed by entry. Tags and fused reporters are not part of them.
UniProt P51532, whole entry: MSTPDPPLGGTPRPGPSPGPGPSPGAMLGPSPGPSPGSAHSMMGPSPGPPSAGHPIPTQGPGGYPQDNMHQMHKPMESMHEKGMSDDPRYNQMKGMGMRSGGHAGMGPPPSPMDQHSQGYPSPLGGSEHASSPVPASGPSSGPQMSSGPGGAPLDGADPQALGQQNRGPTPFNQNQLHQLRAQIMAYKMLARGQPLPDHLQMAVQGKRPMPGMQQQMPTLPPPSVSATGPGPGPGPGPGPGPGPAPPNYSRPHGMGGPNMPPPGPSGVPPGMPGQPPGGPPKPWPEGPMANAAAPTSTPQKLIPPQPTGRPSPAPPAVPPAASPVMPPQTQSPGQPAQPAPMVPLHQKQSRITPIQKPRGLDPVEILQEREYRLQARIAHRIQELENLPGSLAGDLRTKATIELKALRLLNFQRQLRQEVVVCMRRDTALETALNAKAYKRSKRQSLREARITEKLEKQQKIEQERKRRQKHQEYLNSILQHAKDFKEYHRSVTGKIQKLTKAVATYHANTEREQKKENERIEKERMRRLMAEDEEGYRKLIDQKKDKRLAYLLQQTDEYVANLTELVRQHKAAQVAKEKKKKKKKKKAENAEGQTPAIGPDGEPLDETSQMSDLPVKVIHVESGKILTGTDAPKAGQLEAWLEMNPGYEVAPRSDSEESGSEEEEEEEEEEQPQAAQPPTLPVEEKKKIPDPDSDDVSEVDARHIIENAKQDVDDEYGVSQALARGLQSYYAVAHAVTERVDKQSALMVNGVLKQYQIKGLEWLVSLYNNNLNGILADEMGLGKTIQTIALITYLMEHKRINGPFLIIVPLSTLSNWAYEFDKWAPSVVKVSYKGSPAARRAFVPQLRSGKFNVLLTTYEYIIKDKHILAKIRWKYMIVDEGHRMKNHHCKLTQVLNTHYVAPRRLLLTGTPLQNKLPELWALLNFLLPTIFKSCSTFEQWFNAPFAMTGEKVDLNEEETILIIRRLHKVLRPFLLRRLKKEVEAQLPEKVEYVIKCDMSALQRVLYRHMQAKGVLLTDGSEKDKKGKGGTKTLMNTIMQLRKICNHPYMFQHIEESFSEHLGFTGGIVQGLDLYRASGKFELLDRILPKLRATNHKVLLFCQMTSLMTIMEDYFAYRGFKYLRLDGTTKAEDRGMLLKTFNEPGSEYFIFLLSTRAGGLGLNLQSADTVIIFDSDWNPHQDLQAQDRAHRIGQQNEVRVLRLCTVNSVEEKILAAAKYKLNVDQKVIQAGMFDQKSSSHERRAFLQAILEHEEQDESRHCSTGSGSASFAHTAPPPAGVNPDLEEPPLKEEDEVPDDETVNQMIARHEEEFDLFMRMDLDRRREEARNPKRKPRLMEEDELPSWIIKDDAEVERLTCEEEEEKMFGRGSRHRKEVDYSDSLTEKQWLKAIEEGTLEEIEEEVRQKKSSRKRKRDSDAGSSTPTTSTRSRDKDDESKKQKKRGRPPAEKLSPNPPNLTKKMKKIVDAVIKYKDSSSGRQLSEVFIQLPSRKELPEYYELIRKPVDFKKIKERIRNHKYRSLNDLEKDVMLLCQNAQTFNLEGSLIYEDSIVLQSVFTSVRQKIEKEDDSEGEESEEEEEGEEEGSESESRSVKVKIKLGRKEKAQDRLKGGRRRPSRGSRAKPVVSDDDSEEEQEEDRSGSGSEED
UniProt P51531, whole entry: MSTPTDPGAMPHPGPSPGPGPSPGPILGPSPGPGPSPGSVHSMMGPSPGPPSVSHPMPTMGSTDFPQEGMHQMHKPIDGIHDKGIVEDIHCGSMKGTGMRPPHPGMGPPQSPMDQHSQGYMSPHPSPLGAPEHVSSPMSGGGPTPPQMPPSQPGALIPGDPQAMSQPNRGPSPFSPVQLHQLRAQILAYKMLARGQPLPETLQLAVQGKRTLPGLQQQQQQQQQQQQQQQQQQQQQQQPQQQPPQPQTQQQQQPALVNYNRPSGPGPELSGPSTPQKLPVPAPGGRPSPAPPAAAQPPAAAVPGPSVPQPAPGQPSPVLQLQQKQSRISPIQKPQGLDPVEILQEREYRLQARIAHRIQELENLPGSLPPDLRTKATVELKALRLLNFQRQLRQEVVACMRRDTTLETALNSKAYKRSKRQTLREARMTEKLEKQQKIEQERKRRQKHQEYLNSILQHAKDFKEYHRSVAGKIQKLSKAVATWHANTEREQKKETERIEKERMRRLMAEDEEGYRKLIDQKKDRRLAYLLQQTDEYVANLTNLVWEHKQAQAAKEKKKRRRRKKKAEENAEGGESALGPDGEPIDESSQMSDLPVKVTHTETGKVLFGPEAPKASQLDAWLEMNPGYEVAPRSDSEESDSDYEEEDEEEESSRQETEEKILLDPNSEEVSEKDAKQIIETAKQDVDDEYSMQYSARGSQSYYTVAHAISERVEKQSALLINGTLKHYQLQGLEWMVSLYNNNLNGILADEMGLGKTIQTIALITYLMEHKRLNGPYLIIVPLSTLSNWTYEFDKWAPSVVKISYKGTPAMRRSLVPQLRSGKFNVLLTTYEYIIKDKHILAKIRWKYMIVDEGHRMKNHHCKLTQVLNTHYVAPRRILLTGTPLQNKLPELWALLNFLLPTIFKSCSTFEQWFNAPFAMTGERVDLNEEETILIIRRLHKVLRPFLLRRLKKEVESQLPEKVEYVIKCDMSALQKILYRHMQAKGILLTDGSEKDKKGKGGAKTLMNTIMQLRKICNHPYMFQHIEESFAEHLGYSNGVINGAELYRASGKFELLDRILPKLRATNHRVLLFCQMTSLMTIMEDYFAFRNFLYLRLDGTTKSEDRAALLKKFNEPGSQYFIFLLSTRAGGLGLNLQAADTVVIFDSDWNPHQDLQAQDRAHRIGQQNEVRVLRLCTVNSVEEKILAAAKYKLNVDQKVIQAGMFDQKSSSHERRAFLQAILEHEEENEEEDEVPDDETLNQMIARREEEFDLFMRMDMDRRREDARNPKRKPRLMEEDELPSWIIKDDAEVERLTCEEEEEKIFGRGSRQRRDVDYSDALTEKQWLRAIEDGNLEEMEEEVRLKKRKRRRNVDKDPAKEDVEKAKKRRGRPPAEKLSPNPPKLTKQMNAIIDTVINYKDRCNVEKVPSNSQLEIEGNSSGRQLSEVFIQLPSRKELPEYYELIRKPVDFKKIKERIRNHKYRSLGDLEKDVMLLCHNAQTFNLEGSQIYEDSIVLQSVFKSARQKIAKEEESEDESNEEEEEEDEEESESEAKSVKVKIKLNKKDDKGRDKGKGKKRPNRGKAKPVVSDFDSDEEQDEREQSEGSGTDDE

In patent publication US20260265238A1, “COMPOUNDS AND PHARMACEUTICAL COMPOSITIONS THAT DEGRADE SWI/SNF-RELATED MATRIX-ASSOCIATED ACTIN-DEPENDENT REGULATOR OF CHROMATIN SUBFAMILY A” (Plexium, Inc., priority 2023, published 2026):

Key:
[1] = target: SMARCA4-HiBiT HeLa cells (protein which is expressed from the SMARCA4 gene) (Homo sapiens, UniProt P51532); assay: SMARCA4 degradation assay (HiBiT-fusion HeLa cell line, 24 h, luminescence)
Protocol: (§1) SMARCA2 and SMARCA4 Degradation Assay
(§2) Degradation of protein which is expressed from the SMARCA2 and SMARCA4 genes was monitored using engineered HiBiT-fusion HeLa cell lines from Promega. In brief, 384-well white opaque plates (Greiner) were seeded with SMARCA2-HiBiT or SMARCA4-HiBiT HeLa cells at 8,000 cells/well and incubated overnight at 37° C. to allow cell attachment. After overnight incubation, test compounds were added in a 10-point dilution series (typically 10 μM to 300 pM) using a TECAN D300e Digital Dispenser, and plates were subsequently incubated for 24 hours at 37° C. 24-hours post-treatment, protein levels were quantified with the addition of HiBiT lytic buffer, LgBiT protein, and HiBiT substrate, according to manufacturer's specifications. Plates were incubated on an orbital plate shaker for 10 minutes at room temperature. Resulting luminescent values were read out using a ClarioStar plate reader and used to construct dose-response curves and calculation of degradation DC50s (GraphPad Prism).
(§3) Activity of the tested compounds is provided in Table 4 below as follows: A=DC50<0.050 μM; B=0.05 μM<DC50<0.50 μM; C=<0.5 μM<DC50<5.0 μM; D=DC50>5.0 μM. For SMARCA2 and SMARCA4 degradation activity @1 μM, +++=>70%; ++=30-70%; +=<30%.

[2] = target: SMARCA2-HiBiT HeLa cells (protein which is expressed from the SMARCA2 gene) (Homo sapiens, UniProt P51531); assay: SMARCA2 degradation assay (HiBiT-fusion HeLa cell line, 24 h, luminescence)
Protocol: as §1, §2, §3

CC(C)C#Cc1cc(N2CCN(c3cc(-c4ccccc4O)nnc3N)CC[C@H]2C)ccn1
SMARCA4 % Degradation @ 1 μM ([1]; 1 μM): + (+=<30%) | DC50 ([1]; read-out: SMARCA4 DC50): 500 to 5000 nM | SMARCA2 % Degradation @ 1 μM ([2]; 1 μM): ++ (++=30-70%) | DC50 ([2]; read-out: SMARCA2 DC50): 500 to 5000 nM

The structures given here were assigned with low confidence; some may be wrong.
